These are literature values, as cited in patent US8173632B2, “Process for the modification of the solid state of a compound and co-amorphous compositions produced with same” (priority 2007, dated 2012).

The conditions of the data set: in vivo; cited from earlier work.

Turning to `CC(C)c1c(C(=O)Nc2ccccc2)c(-c2ccccc2)c(-c2ccc(F)cc2)n1CC[C@@H](O)C[C@@H](O)CC(=O)O` [atorvastatin], the absorption is given as 30%.
